From publication PMC7859282
Results are given in words; binding and its absence hold for the method and conditions named. Binding seen in cells or lysates may run through a third protein. Some entries that bind do so weakly or less than the wild type. For part of these data: Tags and fused reporters may be left off the sequences shown.

The chains behind the UniProt entries cited, without tags or fusion partners.
UniProt P62745: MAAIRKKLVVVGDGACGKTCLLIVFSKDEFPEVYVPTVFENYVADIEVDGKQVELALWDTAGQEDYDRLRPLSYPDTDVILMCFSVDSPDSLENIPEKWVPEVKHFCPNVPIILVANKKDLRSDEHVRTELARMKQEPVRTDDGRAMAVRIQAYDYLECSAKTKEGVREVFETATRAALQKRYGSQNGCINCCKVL

Legend:
[1] = biological target: T1, Tumor necrosis factor alpha induced protein 1 (TNFAIP1), endogenous (human (endogenous in HepG2)) (UniProt Q13829); assay: co-IP; endogenous proteins; HepG2 cells treated with MG132 (5 uM) for 6 h; lysate incubated with anti-TNFAIP1 antibody overnight at 4°C, protein A/G; immunoblot
T1 sequence: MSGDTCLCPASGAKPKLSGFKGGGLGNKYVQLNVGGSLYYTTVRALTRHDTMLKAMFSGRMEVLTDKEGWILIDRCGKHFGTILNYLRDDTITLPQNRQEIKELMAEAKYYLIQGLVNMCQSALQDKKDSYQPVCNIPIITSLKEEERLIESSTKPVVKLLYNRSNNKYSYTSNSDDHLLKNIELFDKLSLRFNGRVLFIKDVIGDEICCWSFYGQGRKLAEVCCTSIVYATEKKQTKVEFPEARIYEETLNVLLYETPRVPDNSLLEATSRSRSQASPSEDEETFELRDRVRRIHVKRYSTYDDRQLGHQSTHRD

[2] = biological target: RhoB (endogenous) (human (endogenous in HepG2)) (UniProt P62745); assay: co-IP; endogenous proteins; HepG2 cells treated with MG132 (5 uM) for 6 h; lysate incubated with anti-RhoB antibody overnight at 4°C, protein A/G; immunoblot
Flag-RhoB (human) = Flag-RhoB (human) (UniProt P62745); assay: co-IP; HEK293T cells transfected with Flag-RhoB and HA-TNFAIP1, MG132 for 6 h; lysate incubated with anti-Flag M2 beads overnight at 4°C; immunoblot

## RhoB (endogenous) (from UniProt P62745 1-196)
[1]
  binding: binds

B1: Tumor necrosis factor alpha induced protein 1 (TNFAIP1), endogenous (protein, UniProt Q13829 1-316)
chain: MSGDTCLCPASGAKPKLSGFKGGGLGNKYVQLNVGGSLYYTTVRALTRHDTMLKAMFSGRMEVLTDKEGWILIDRCGKHFGTILNYLRDDTITLPQNRQEIKELMAEAKYYLIQGLVNMCQSALQDKKDSYQPVCNIPIITSLKEEERLIESSTKPVVKLLYNRSNNKYSYTSNSDDHLLKNIELFDKLSLRFNGRVLFIKDVIGDEICCWSFYGQGRKLAEVCCTSIVYATEKKQTKVEFPEARIYEETLNVLLYETPRVPDNSLLEATSRSRSQASPSEDEETFELRDRVRRIHVKRYSTYDDRQLGHQSTHRD
[2]
  binding: binds

B2: HA-TNFAIP1 (protein, UniProt Q13829 1-316)
chain: MSGDTCLCPASGAKPKLSGFKGGGLGNKYVQLNVGGSLYYTTVRALTRHDTMLKAMFSGRMEVLTDKEGWILIDRCGKHFGTILNYLRDDTITLPQNRQEIKELMAEAKYYLIQGLVNMCQSALQDKKDSYQPVCNIPIITSLKEEERLIESSTKPVVKLLYNRSNNKYSYTSNSDDHLLKNIELFDKLSLRFNGRVLFIKDVIGDEICCWSFYGQGRKLAEVCCTSIVYATEKKQTKVEFPEARIYEETLNVLLYETPRVPDNSLLEATSRSRSQASPSEDEETFELRDRVRRIHVKRYSTYDDRQLGHQSTHRD
Flag-RhoB (human)
  binding: binds
